This passage reports binding results from publication doi:10.1101/2022.12.30.521597 (bioRxiv, 2022).

Test [1] concerns the target EXO70H4 (yeast two-hybrid bait, Gal4 BD fusion) (A. thaliana). The experiment in a line: two-hybrid.
Test [2] addresses CLuc-HvCam3 (barley calmodulin 3) (barley). Kind of test: split reporter.

These are yes or no findings as the source states them, for the method shown. A result given as binding can be weak or reduced; the word gives no strength. For part of these data: Binding seen in cells or lysates may run through a third protein. For part of these data: Where a sequence is shown, tags or fusion partners need not be part of it.

B1: MLO6^IC2 (second intracellular loop of MLO6, yeast two-hybrid prey) (domain or fragment, UniProt Q94KB7 183-284)
chain: KTKMRRWKKWEEETKTIEYQYSHDPERFRFARDTSFGRRHLSFWSKSTITLWIVCFFRQFFRSVTKVDYLTLRHGFIMAHLAPGSDARFDFRKYIQRSLEED
B1: in test [1], the binding result is reported as “no binding”.

B2: MLO6^CT (carboxyl terminus of MLO6, yeast two-hybrid prey) (domain or fragment, UniProt Q94KB7 433-583)
chain: VTQMGSKMKPTVFNERVATALKSWHHTAKKNIKHGRTSESTTPFSSRPTTPTHGSSPIHLLRNAPHKRSRSVDESFANSFSPRNSDFDSWDPESQHETAETSNSNHRSRFGEEESEKKFVSSSVELPPGPGQIRTQHEISTISLRDFSFKR
Regarding B2, the binding entry in test [1] is reported as “binds”.

B3: MLO6-NLuc (natural protein)
chain: MADQVKEKTLEETSTWAVAVVCFVLLLISIVIEKLIHKIGSWFKKKNKKALYEALEKVKAELMLMGFISLLLTIGQGYISNICIPKNIAASMHPCSASEEARKYGKKDVPKEDEEENLRRKLLQLVDSLIPRRSLATKGYDKCAEKGKVAFVSAYGMHQLHIFIFVLAVCHVIYCIVTYALGKTKMRRWKKWEEETKTIEYQYSHDPERFRFARDTSFGRRHLSFWSKSTITLWIVCFFRQFFRSVTKVDYLTLRHGFIMAHLAPGSDARFDFRKYIQRSLEEDFKTIVEINPVIWFIAVLFLLTNTNGLNSYLWLPFIPFIVILIVGTKLQVIITKLGLRIQEKGDVVKGTPLVQPGDHFFWFGRPRFILFLIHLVLFTNAFQLAFFVWSTYEFGLKNCFHESRVDVIIRISIGLLVQILCSYVTLPLYALVTQMGSKMKPTVFNERVATALKSWHHTAKKNIKHGRTSESTTPFSSRPTTPTHGSSPIHLLRNAPHKRSRSVDESFANSFSPRNSDFDSWDPESQHETAETSNSNHRSRFGEEESEKKFVSSSVELPPGPGQIRTQHEISTISLRDFSFKR
Turning to B3, the binding result in test [2] was “binds”.
